At least one compound was matched to its structure with a doubt left.
Assays:
Type in all cases: biochemical
Odc1p [1] = biological target: T1, Odc1p (Saccharomyces cerevisiae, UniProt Q03028); assay: Dependence on internal substrate of [14C]oxoglutarate uptake into proteoliposomes reconstituted with recombinant Odc1p
T1 construct: made in house; host or cells: S. cerevisiae odc1Δodc2Δ (YPH499 background) carrying pYES2-based pODC1; purified from mitochondria on Ni-NTA agarose
T1 sequence (Q03028 1-310): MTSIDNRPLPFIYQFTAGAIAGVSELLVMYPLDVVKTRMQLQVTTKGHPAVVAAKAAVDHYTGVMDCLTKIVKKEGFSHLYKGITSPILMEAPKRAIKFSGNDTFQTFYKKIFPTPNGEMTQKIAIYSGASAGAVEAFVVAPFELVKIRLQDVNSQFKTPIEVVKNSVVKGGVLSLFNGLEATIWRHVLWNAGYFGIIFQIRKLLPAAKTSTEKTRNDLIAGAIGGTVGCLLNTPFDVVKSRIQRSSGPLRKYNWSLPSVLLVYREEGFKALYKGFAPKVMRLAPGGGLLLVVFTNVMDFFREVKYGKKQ
Experimental: (§1) Reconstitution of the ODC proteins into liposomes—Purified ODC proteins were reconstituted by cyclic removal of the detergent with a hydrophobic column (13). The composition of the initial mixture used for reconstitution was: 200 μl of purified isoform (0.3-0.4 μg of protein), 70 μl of 10% Triton X-114, 100 μl of 10% phospholipids in the form of sonicated liposomes, 20 mM oxoglutarate (except where otherwise indicated), 10 mM Pipes (pH 7.0), 0.7 mg of cardiolipin (Sigma) and water to a final volume of 700 μl. […]
(§2) External substrate was removed from proteoliposomes on a Sephadex G-75 column preequilibrated with buffer F (50 mM NaCl and 10 mM PIPES, pH 7.0). […] The external radioactivity was removed on Sephadex G-75 and the internal radioactivity was measured. […] The initial rate of transport was calculated in mmol/min per g protein from the time course of isotope equilibration (13). […] For efflux measurements, the internal substrate pool of the proteoliposomes was made radioactive by carrier-mediated exchange equilibration (13) with 0.1 mM [^14C]oxoglutarate added at high specific radioactivity. After 60 min, the residual external radioactivity was removed by passing the proteoliposomes again through a column of Sephadex G-75. […]

Odc2p [2] = biological target: T2, Odc2p (Saccharomyces cerevisiae, UniProt Q99297); assay: Dependence on internal substrate of [14C]oxoglutarate uptake into proteoliposomes reconstituted with recombinant Odc2p
T2 construct: made in house; host or cells: S. cerevisiae odc1Δodc2Δ (YPH499 background) carrying pYES2-based pODC2; purified from mitochondria on Ni-NTA agarose
T2 sequence (Q99297 1-307): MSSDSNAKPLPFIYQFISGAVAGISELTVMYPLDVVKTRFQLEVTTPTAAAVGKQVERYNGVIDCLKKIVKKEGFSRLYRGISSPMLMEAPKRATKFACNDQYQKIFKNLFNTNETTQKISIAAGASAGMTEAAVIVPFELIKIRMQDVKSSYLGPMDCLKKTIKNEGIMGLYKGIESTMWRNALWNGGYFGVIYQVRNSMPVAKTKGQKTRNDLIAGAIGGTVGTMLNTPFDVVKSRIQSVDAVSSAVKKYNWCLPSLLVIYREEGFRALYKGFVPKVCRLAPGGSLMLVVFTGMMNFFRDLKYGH
Experimental: as §1, §2

Odc1p [3] = biological target: T1, Odc1p; assay: Effect of inhibitors and external compounds on the [14C]oxoglutarate/oxoglutarate exchange by proteoliposomes reconstituted with Odc1p
Experimental: FIG. 5. Effect of dicarboxylates and 2-oxodicarboxylates with different carbon chain length on the rate of [^14C]oxoglutarate uptake into proteoliposomes reconstituted with recombinant Odc1p. Proteoliposomes were preloaded with 20 mM oxoglutarate and reconstituted with recombinant Odc1p. Transport was initiated by the addition of 0.4 mM [^14C]oxoglutarate and terminated after 45 seconds. Oxalate, malonate, succinate, glutarate, adipate, pimelate, suberate (▪) and the corresponding 2-oxoacids (●) were added simultaneously with [1^4C]oxoglutarate at 4.0 mM concentration. […]
as §2

Odc2p [4] = biological target: T2, Odc2p; assay: Effect of inhibitors and external compounds on the [14C]oxoglutarate/oxoglutarate exchange by proteoliposomes reconstituted with Odc2p
Experimental: as §1, §2

[5] = proteoliposomes preloaded with 20 mM internal substrate, 0.6 mM [14C]oxoglutarate, 45 seconds
[6] = proteoliposomes preloaded with various substrates

O=C(O)CCCC(=O)O [Glutarate]
[14C]oxoglutarate transport (Odc1p [1]; [5]): 81.1 mmol/min per g protein | [14C]oxoglutarate uptake with the internal substrate (in words) (Odc1p [1]; [6]): taken up efficiently | [14C]oxoglutarate transport (Odc2p [2]; [5]): 17.6 mmol/min per g protein | [14C]oxoglutarate uptake with the internal substrate (in words) (Odc2p [2]; [6]): taken up efficiently | effect of non-radioactive potential substrates on the rate of oxoglutarate uptake (in words) (Odc1p [3]): significant inhibition | effect of non-radioactive potential substrates on the rate of oxoglutarate uptake (in words) (Odc2p [4]): significant inhibition

Source: patent US20020155192A1, “Yeast transport isoforms” (priority 2000, published 2002)
